The other results are listed elsewhere or left out.
Key:
Experiment in all cases: glycan array binding signal (z-score within array); higher = stronger binding
Settings in all cases: glycan notation: IUPAC condensed, linker removed
[1] = biological target: Fuc(a1-2)[Gal(a1-3)]Gal(b1-4)GlcNAc(b1-2)Man(a1-3)[Fuc(a1-2)[Gal(a1-3)]Gal(b1-4)GlcNAc(b1-2)Man(a1-6)]Man(b1-4)GlcNAc(b1-4)[Fuc(a1-6)]GlcNAc
Procedure, shortened: (§1)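 The binding signal is a Z-score computed within each array and averaged over linkers. Arrays of the same protein sequence at different concentrations or buffers were also averaged together. Data originate from 3228 arrays in the Consortium for Functional Glycomics database, kept only where the protein sequence was available.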

[2] = biological target: Fuc(a1-2)[Gal(a1-3)]Gal(b1-4)GlcNAc(b1-3)GalNAc
Procedure, shortened: as §1

[3] = biological target: Fuc(a1-2)[Gal(a1-3)]Gal(b1-4)GlcNAc(b1-3)[Fuc(a1-2)[Gal(a1-3)]Gal(b1-4)GlcNAc(b1-6)]GalNAc
Procedure, shortened: as §1

[4] = biological target: Fuc(a1-2)[Gal(a1-3)]Gal(b1-4)GlcNAc(b1-6)GalNAc
Procedure, shortened: as §1

[5] = biological target: Fuc(a1-2)[Gal(a1-3)]Gal(b1-4)[Fuc(a1-3)]Glc
Procedure, shortened: as §1

[6] = biological target: Fuc(a1-2)[Gal(a1-3)]Gal(b1-4)[Fuc(a1-3)]GlcNAc
Procedure, shortened: as §1

[7] = biological target: Fuc(a1-2)[Gal(a1-3)]Gal(b1-4)[Fuc(a1-3)]GlcNAc(b1-3)GalNAc
Procedure, shortened: as §1

[8] = biological target: Fuc(a1-2)[Gal(a1-4)]Gal(b1-4)GlcNAc
Procedure, shortened: as §1

[9] = biological target: Fuc(a1-2)[GalNAc(a1-3)]Gal
Procedure, shortened: as §1

[10] = biological target: Fuc(a1-2)[GalNAc(a1-3)]Gal(b1-3)GalNAc(a1-3)[Fuc(a1-2)]Gal(b1-4)GlcNAc
Procedure, shortened: as §1

[11] = biological target: Fuc(a1-2)[GalNAc(a1-3)]Gal(b1-3)GalNAc(b1-3)Gal(a1-4)Gal(b1-4)Glc
Procedure, shortened: as §1

[12] = biological target: Fuc(a1-2)[GalNAc(a1-3)]Gal(b1-3)GlcNAc
Procedure, shortened: as §1

[13] = biological target: Fuc(a1-2)[GalNAc(a1-3)]Gal(b1-3)GlcNAc(b1-2)Man(a1-3)[Fuc(a1-2)[GalNAc(a1-3)]Gal(b1-3)GlcNAc(b1-2)Man(a1-6)]Man(b1-4)GlcNAc(b1-4)GlcNAc
Procedure, shortened: as §1

[14] = biological target: Fuc(a1-2)[GalNAc(a1-3)]Gal(b1-3)GlcNAc(b1-2)Man(a1-3)[Fuc(a1-2)[GalNAc(a1-3)]Gal(b1-3)GlcNAc(b1-2)Man(a1-6)]Man(b1-4)GlcNAc(b1-4)[Fuc(a1-6)]GlcNAc
Procedure, shortened: as §1

[15] = biological target: Fuc(a1-2)[GalNAc(a1-3)]Gal(b1-3)GlcNAc(b1-3)GalNAc
Procedure, shortened: as §1

[16] = biological target: Fuc(a1-2)[GalNAc(a1-3)]Gal(b1-3)GlcNAc(b1-6)GalNAc
Procedure, shortened: as §1

[17] = biological target: Fuc(a1-2)[GalNAc(a1-3)]Gal(b1-4)Glc
Procedure, shortened: as §1

[18] = biological target: Fuc(a1-2)[GalNAc(a1-3)]Gal(b1-4)GlcNAc
Procedure, shortened: as §1

[19] = biological target: Fuc(a1-2)[GalNAc(a1-3)]Gal(b1-4)GlcNAc(b1-2)Man
Procedure, shortened: as §1

[20] = biological target: Fuc(a1-2)[GalNAc(a1-3)]Gal(b1-4)GlcNAc(b1-2)Man(a1-3)[Fuc(a1-2)[GalNAc(a1-3)]Gal(b1-4)GlcNAc(b1-2)Man(a1-6)]Man(b1-4)GlcNAc(b1-4)GlcNAc
Procedure, shortened: as §1

[21] = biological target: Fuc(a1-2)[GalNAc(a1-3)]Gal(b1-4)GlcNAc(b1-2)Man(a1-3)[Fuc(a1-2)[GalNAc(a1-3)]Gal(b1-4)GlcNAc(b1-2)Man(a1-6)]Man(b1-4)GlcNAc(b1-4)[Fuc(a1-6)]GlcNAc
Procedure, shortened: as §1

[22] = biological target: Fuc(a1-2)[GalNAc(a1-3)]Gal(b1-4)GlcNAc(b1-3)Gal(b1-4)GlcNAc
Procedure, shortened: as §1

[23] = biological target: Fuc(a1-2)[GalNAc(a1-3)]Gal(b1-4)GlcNAc(b1-3)Gal(b1-4)GlcNAc(b1-3)Gal(b1-4)GlcNAc
Procedure, shortened: as §1

[24] = biological target: Fuc(a1-2)[GalNAc(a1-3)]Gal(b1-4)GlcNAc(b1-3)GalNAc
Procedure, shortened: as §1

[25] = biological target: Fuc(a1-2)[GalNAc(a1-3)]Gal(b1-4)GlcNAc(b1-3)[Fuc(a1-2)[GalNAc(a1-3)]Gal(b1-4)GlcNAc(b1-6)]GalNAc
Procedure, shortened: as §1

[26] = biological target: Fuc(a1-2)[GalNAc(a1-3)]Gal(b1-4)GlcNAc(b1-6)GalNAc
Procedure, shortened: as §1

[27] = biological target: Fuc(a1-2)[GalNAc(a1-3)]Gal(b1-4)[Fuc(a1-3)]GlcNAc
Procedure, shortened: as §1

[28] = biological target: Fuc(a1-2)[GalNAc(a1-3)]Gal(b1-4)[Fuc(a1-3)]GlcNAc(b1-3)GalNAc
Procedure, shortened: as §1

[29] = biological target: Fuc(a1-2)[GalNAc(a1-4)]Gal(b1-4)GlcNAc
Procedure, shortened: as §1

[30] = biological target: Fuc(a1-2)[GalNAc(b1-3)]Gal
Procedure, shortened: as §1

B1: PX15642A-pgi-501-20-501 (Parabacteroides gingivalis) (protein)
chain: CELDRDPEGKDFQQPYTSFVQTKQNRDGLYALLRNTENPRMHFYQELQSDMYCTTITDGNSLAPFVNWDLGILNDHGRADEDEVSGIAGYYFVYNRLNQQANAFVNNTEAALQNQVYKNSTEIANAKSFLAEGKVLQALAIWRLMDRFSFHESVTEVNSGAKDLGVILLKEYNPGYIGPRATKAQCYDYILSRLSEAIEVLPENRESVLYVSRDYAYALRARIYLALGEYGKAAADAKMVVDKYPLIGAADASEFENIYRSDANNPEIIFRGFASATLGSFTATTLNGAAPAGKDIKYNPSAVPFQWVVDLYENEDFRKSVYIAKVVKKDKGYLVNKFLEDKAYRDVQDKPNLKVGARYFSVAEVYLILVESALQTGDTPTAEKYLKALSKARGAEVSVVNMEALQAERTRELIGEGSRLRDMVRWSIPNNHDAFETQPGLEGFANTTPLKAQAPVGFYAYTWEFPQRDRQTNPQLIKNWPI
For B1, the “glycan array binding signal (z-score)” value [1] was 0.097, the “glycan array binding signal (z-score)” value [2] was 1.21 and the “glycan array binding signal (z-score)” value [3] was 0.225. For the same binder, the “glycan array binding signal (z-score)” value [4] was 1.03, the “glycan array binding signal (z-score)” value [5] was -0.368 and the “glycan array binding signal (z-score)” value [6] was -0.478. The “glycan array binding signal (z-score)” value [7] was -0.679, the “glycan array binding signal (z-score)” value [8] was -0.568 and the “glycan array binding signal (z-score)” value [9] was -0.376. For the same binder, the “glycan array binding signal (z-score)” value [10] was -0.538, the “glycan array binding signal (z-score)” value [11] was -0.132 and the “glycan array binding signal (z-score)” value [12] was -0.172. For the same binder, the “glycan array binding signal (z-score)” value [13] was 0.836, the “glycan array binding signal (z-score)” value [14] was -0.3 and the “glycan array binding signal (z-score)” value [15] was 0.405. The “glycan array binding signal (z-score)” value [16] was 0.189, the “glycan array binding signal (z-score)” value [17] was -0.238 and the “glycan array binding signal (z-score)” value [18] was 0.107. For the same binder, the “glycan array binding signal (z-score)” value [19] was -0.848, the “glycan array binding signal (z-score)” value [20] was 0.43 and the “glycan array binding signal (z-score)” value [21] was -1.03. The “glycan array binding signal (z-score)” value [22] was -0.401, the “glycan array binding signal (z-score)” value [23] was 0.25 and the “glycan array binding signal (z-score)” value [24] was -0.574. The “glycan array binding signal (z-score)” value [25] was -0.728, the “glycan array binding signal (z-score)” value [26] was -0.399 and the “glycan array binding signal (z-score)” value [27] was 0.056. The “glycan array binding signal (z-score)” value [28] was 1.34, the “glycan array binding signal (z-score)” value [29] was -0.172 and the “glycan array binding signal (z-score)” value [30] was 0.871.
